{"source": "patent US20160089343A1", "about": "(LSU Health Sciences Center Shreveport, priority 2014, published 2016)", "tested_on": "HNSCC cell lines", "assay": "HNSCC cell lines screened for sensitivity to curcumin (cell proliferation)", "assay_type": "cell-based", "details": "spread of sensitivity across cell lines", "note": "At least one structure is not confirmed: it was looked up by name or label, or the drawing left a doubt."}
{"smiles": "CO[C@H]1C[C@@H]2CC[C@@H](C)[C@@](O)(O2)C(=O)C(=O)N2CCCC[C@H]2C(=O)O[C@H]([C@H](C)C[C@@H]2CC[C@@H](O)[C@H](OC)C2)CC(=O)[C@H](C)/C=C(\\C)[C@@H](O)[C@@H](OC)C(=O)[C@H](C)C[C@H](C)/C=C/C=C/C=C/1C", "note": "[rapamycin]", "values": [{"measurement": "sensitivity of a variety of cell lines", "value": "wide range of sensitivity"}]}
